# These are yes or no findings as the source states them, for the method shown. Binding calls can cover weak binding; strength is not graded here.
# B1: CytL3-Loop7 (Cyt1Aa-loop3 hybrid toxin, Cry1Ab domain II loop3 inserted in loop7 of Cyt1Aa) (protein, UniProt P0A382 1-151; P0A382 152-249)
# chain: MENLNHCPLEDIKVNPWKTPQSTARVITLRVEDPNEINNLLSINEIDNPNYILQAIMLANAFQNALVPTSTDFGDALRFSMPKGLEIANTITPMGAVVSYVDQNVTQTNNQVSVMINKVLEVLKTVLGVALSGSVIDQLTAAVTNTFTNLNFRSGFSNSSVSITQKNEAWIFWGKETANQTNYTYNVLFAIQNAQTGGVMYCVPVGFEIKVSAVKEQVLFFTIQDSASYNVNIQSLKFAQPLVSSSQYPIADLTSAINGTL
# B2: CytL3-Loop9 (Cyt1Aa-loop3 hybrid toxin, Cry1Ab domain II loop3 inserted in loop9 of Cyt1Aa) (protein, UniProt P0A382 1-167; P0A382 168-249)
# chain: MENLNHCPLEDIKVNPWKTPQSTARVITLRVEDPNEINNLLSINEIDNPNYILQAIMLANAFQNALVPTSTDFGDALRFSMPKGLEIANTITPMGAVVSYVDQNVTQTNNQVSVMINKVLEVLKTVLGVALSGSVIDQLTAAVTNTFTNLNTQKNEAWIFWGKETANFRSGFSNSSVSIQTNYTYNVLFAIQNAQTGGVMYCVPVGFEIKVSAVKEQVLFFTIQDSASYNVNIQSLKFAQPLVSSSQYPIADLTSAINGTL
# B3: CytL3-Loop6 (Cyt1Aa-loop3 hybrid toxin, Cry1Ab domain II loop3 inserted in loop6 of Cyt1Aa) (protein, UniProt P0A382 1-138; P0A382 139-249)
# chain: MENLNHCPLEDIKVNPWKTPQSTARVITLRVEDPNEINNLLSINEIDNPNYILQAIMLANAFQNALVPTSTDFGDALRFSMPKGLEIANTITPMGAVVSYVDQNVTQTNNQVSVMINKVLEVLKTVLGVALSGSVIDQFRSGFSNSSVSILTAAVTNTFTNLNTQKNEAWIFWGKETANQTNYTYNVLFAIQNAQTGGVMYCVPVGFEIKVSAVKEQVLFFTIQDSASYNVNIQSLKFAQPLVSSSQYPIADLTSAINGTL
# Target: Manduca sexta aminopeptidase N 1 (APN1), recombinant (Manduca sexta)
# Experiment: ELISA; plates coated with 0.5 ug of recombinant receptor (CAD, APN1 or ALP); Cyt1Aa or hybrid-Cyt1Aa at 50 nM (methods; the legend of Figure 4 says 100 nM) in PBST, 1 h at 37 C; detected with rabbit anti-Cyt1A and anti-rabbit HRP; both purified
row,Binder,binding
1,B1,binds
2,B2,binds
3,B3,binds

# Target: Manduca sexta alkaline phosphatase (ALP), recombinant (Manduca sexta)
# Experiment: as above
row,Binder,binding
1,B1,binds
2,B2,binds
3,B3,binds

# Target: Manduca sexta CR12 CAD fragment corresponding to cadherin repeat 12 (CAD-CR12) (Manduca sexta)
# Experiment: as above
row,Binder,binding
1,B1,binds
2,B2,binds
3,B3,binds

# Reference: paper PMC5862903
